{"source": "PubChem BioAssay AID493246 (Drosophila RNAi Screening Center, 2011)", "purpose": "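Identify essential fly genes by loss of cell viability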 (primary screen)", "cells": "Drosophila Kc and S2R+ cells", "reagent": "long dsRNA against Drosophila genes", "measured": "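Raw, unnormalised count of remaining cells in each well; per-plate z-scores of cell number underlie the calls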", "scale": "Kc cell number and S2R+ cell number: higher = more cells remaining", "call rule": "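Counted as a hit if cell number falls by a z-score of at least 3 within its plate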", "note": "The deposit covers about 21,000 reagents; below is a random part of those that have a named target and a result. In the full data, 429 (2%) got an active call. 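Values are raw and not normalised between plates; calls rest on per-plate z-scores that were not deposited.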 Reagents against one gene are numbered here. A plus sign joins genes that one reagent is predicted to hit. Not stated in the record: the amount of reagent, the time to read-out."}
{"predicted target":"CG9676","dsRNA no.":1,"Kc cell number, rep 1":1.61e6,"Kc cell number, rep 2":1.59e6,"S2R+ cell number, rep 1":1.18e6,"S2R+ cell number, rep 2":1.22e6,"Call":"inactive"}
{"predicted target":"Nup43","dsRNA no.":1,"Kc cell number, rep 1":1.36e6,"Kc cell number, rep 2":1.49e6,"S2R+ cell number, rep 1":9.79e5,"S2R+ cell number, rep 2":1.00e6,"Call":"inactive"}
{"predicted target":"Tep1","dsRNA no.":1,"Kc cell number, rep 1":1.57e6,"Kc cell number, rep 2":1.65e6,"S2R+ cell number, rep 1":1.25e6,"S2R+ cell number, rep 2":1.38e6,"Call":"inactive"}
{"predicted target":"Mabi","dsRNA no.":1,"Kc cell number, rep 1":1.66e6,"Kc cell number, rep 2":1.69e6,"S2R+ cell number, rep 1":1.40e6,"S2R+ cell number, rep 2":1.51e6,"Call":"inactive"}
{"predicted target":"ct","dsRNA no.":1,"Kc cell number, rep 1":1.04e6,"Kc cell number, rep 2":1.08e6,"S2R+ cell number, rep 1":7.87e5,"S2R+ cell number, rep 2":9.20e5,"Call":"inactive"}
{"predicted target":"CG7646","dsRNA no.":1,"Kc cell number, rep 1":1.55e6,"Kc cell number, rep 2":2.07e6,"S2R+ cell number, rep 1":1.32e6,"S2R+ cell number, rep 2":1.43e6,"Call":"inactive"}
{"predicted target":"CG3328","dsRNA no.":1,"Kc cell number, rep 1":1.25e6,"Kc cell number, rep 2":1.32e6,"S2R+ cell number, rep 1":1.10e6,"S2R+ cell number, rep 2":1.20e6,"Call":"inactive"}
{"predicted target":"CG10383","dsRNA no.":1,"Kc cell number, rep 1":1.29e6,"Kc cell number, rep 2":1.42e6,"S2R+ cell number, rep 1":1.26e6,"S2R+ cell number, rep 2":1.27e6,"Call":"inactive"}

Targets above whose gene name starts with C or c:
{"predicted target":"CG9676","dsRNA no.":1,"Kc cell number, rep 1":1.61e6,"Kc cell number, rep 2":1.59e6,"S2R+ cell number, rep 1":1.18e6,"S2R+ cell number, rep 2":1.22e6,"Call":"inactive"}
{"predicted target":"ct","dsRNA no.":1,"Kc cell number, rep 1":1.04e6,"Kc cell number, rep 2":1.08e6,"S2R+ cell number, rep 1":7.87e5,"S2R+ cell number, rep 2":9.20e5,"Call":"inactive"}
{"predicted target":"CG7646","dsRNA no.":1,"Kc cell number, rep 1":1.55e6,"Kc cell number, rep 2":2.07e6,"S2R+ cell number, rep 1":1.32e6,"S2R+ cell number, rep 2":1.43e6,"Call":"inactive"}
{"predicted target":"CG3328","dsRNA no.":1,"Kc cell number, rep 1":1.25e6,"Kc cell number, rep 2":1.32e6,"S2R+ cell number, rep 1":1.10e6,"S2R+ cell number, rep 2":1.20e6,"Call":"inactive"}
{"predicted target":"CG10383","dsRNA no.":1,"Kc cell number, rep 1":1.29e6,"Kc cell number, rep 2":1.42e6,"S2R+ cell number, rep 1":1.26e6,"S2R+ cell number, rep 2":1.27e6,"Call":"inactive"}

Additional reagents follow.
{"predicted target":"Usp10","dsRNA no.":1,"Kc cell number, rep 1":1.34e6,"Kc cell number, rep 2":1.37e6,"S2R+ cell number, rep 1":1.13e6,"S2R+ cell number, rep 2":1.11e6,"Call":"inactive"}
{"predicted target":"Usp10","dsRNA no.":2,"Kc cell number, rep 1":1.56e6,"Kc cell number, rep 2":1.33e6,"S2R+ cell number, rep 1":9.94e5,"S2R+ cell number, rep 2":1.20e6,"Call":"inactive"}
{"predicted target":"Arts + Apl","dsRNA no.":1,"Kc cell number, rep 1":1.28e6,"Kc cell number, rep 2":1.42e6,"S2R+ cell number, rep 1":1.36e6,"S2R+ cell number, rep 2":1.43e6,"Call":"inactive"}
{"predicted target":"tio","dsRNA no.":1,"Kc cell number, rep 1":1.49e6,"Kc cell number, rep 2":1.63e6,"S2R+ cell number, rep 1":1.36e6,"S2R+ cell number, rep 2":3.16e5,"Call":"inactive"}
